No constants are given. Whether binding was seen depends on the method and setting. Some entries that bind do so weakly or less than the wild type.
Experiments:
VWF in pig plasma (pig) = VWF in pig plasma (pig) (UniProt Q28833); test: cross-reactivity of pigs with the test item; method not described
[1] = molecular target: purified vWF (ZLB Behring) (UniProt P04275); test: PK ELISA: captured Nanobody complexed with purified vWF, detected with anti-human vWF antibody

Sequences of proteins named here, by UniProt entry; tags and fusion partners are left off. Residues count along the entry.
UniProt Q28833, residues 438-2482: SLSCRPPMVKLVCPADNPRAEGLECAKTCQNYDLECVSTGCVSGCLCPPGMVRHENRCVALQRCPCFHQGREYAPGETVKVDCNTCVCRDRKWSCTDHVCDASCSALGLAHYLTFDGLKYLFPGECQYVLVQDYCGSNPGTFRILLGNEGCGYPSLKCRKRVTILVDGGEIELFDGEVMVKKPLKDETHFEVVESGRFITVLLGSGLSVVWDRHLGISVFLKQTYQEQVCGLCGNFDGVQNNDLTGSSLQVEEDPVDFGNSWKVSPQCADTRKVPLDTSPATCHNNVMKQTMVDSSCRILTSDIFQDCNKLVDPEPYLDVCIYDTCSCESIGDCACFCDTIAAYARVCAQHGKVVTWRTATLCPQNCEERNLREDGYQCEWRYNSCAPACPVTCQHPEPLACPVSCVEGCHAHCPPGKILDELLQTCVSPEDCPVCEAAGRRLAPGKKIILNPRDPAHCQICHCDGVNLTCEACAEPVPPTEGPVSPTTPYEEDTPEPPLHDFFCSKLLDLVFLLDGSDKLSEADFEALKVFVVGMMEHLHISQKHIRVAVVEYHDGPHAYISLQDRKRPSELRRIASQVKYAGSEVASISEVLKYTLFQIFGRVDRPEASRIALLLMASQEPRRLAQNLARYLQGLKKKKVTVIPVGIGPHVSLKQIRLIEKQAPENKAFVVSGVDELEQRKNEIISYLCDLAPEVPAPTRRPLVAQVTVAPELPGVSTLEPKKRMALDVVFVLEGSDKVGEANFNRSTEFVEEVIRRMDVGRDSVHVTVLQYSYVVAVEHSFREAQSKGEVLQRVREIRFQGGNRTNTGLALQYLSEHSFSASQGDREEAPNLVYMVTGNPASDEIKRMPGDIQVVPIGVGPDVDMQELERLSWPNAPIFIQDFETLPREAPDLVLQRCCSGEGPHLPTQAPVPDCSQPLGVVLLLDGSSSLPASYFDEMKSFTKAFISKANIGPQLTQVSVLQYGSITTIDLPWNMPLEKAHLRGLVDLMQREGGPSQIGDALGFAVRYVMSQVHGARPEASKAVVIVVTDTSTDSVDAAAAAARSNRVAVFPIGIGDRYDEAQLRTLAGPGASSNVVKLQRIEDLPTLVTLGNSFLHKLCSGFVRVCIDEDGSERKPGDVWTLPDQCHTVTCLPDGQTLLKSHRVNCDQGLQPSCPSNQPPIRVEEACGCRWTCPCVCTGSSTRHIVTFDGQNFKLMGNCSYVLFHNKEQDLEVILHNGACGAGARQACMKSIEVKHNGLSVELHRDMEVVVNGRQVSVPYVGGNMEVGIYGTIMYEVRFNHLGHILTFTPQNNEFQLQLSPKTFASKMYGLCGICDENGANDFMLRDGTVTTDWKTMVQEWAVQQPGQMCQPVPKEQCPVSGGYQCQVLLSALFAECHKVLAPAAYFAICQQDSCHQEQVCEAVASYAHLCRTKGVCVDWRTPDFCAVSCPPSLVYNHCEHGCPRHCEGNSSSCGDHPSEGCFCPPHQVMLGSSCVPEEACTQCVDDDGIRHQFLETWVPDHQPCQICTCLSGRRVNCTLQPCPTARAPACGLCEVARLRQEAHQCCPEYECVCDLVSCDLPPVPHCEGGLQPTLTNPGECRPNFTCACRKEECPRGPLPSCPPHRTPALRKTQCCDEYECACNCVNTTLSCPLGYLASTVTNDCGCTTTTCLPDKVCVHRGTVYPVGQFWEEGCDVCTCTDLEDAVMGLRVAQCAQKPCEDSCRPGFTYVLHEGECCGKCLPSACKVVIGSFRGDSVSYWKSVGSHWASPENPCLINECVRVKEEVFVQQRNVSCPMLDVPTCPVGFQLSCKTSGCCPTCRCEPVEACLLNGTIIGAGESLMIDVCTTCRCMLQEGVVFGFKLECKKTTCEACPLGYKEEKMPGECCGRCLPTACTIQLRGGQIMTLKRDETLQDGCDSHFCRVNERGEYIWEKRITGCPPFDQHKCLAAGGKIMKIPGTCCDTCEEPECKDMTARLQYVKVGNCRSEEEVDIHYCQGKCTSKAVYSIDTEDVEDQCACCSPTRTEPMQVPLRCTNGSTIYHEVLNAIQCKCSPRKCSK
UniProt P04275, residues 764-2813: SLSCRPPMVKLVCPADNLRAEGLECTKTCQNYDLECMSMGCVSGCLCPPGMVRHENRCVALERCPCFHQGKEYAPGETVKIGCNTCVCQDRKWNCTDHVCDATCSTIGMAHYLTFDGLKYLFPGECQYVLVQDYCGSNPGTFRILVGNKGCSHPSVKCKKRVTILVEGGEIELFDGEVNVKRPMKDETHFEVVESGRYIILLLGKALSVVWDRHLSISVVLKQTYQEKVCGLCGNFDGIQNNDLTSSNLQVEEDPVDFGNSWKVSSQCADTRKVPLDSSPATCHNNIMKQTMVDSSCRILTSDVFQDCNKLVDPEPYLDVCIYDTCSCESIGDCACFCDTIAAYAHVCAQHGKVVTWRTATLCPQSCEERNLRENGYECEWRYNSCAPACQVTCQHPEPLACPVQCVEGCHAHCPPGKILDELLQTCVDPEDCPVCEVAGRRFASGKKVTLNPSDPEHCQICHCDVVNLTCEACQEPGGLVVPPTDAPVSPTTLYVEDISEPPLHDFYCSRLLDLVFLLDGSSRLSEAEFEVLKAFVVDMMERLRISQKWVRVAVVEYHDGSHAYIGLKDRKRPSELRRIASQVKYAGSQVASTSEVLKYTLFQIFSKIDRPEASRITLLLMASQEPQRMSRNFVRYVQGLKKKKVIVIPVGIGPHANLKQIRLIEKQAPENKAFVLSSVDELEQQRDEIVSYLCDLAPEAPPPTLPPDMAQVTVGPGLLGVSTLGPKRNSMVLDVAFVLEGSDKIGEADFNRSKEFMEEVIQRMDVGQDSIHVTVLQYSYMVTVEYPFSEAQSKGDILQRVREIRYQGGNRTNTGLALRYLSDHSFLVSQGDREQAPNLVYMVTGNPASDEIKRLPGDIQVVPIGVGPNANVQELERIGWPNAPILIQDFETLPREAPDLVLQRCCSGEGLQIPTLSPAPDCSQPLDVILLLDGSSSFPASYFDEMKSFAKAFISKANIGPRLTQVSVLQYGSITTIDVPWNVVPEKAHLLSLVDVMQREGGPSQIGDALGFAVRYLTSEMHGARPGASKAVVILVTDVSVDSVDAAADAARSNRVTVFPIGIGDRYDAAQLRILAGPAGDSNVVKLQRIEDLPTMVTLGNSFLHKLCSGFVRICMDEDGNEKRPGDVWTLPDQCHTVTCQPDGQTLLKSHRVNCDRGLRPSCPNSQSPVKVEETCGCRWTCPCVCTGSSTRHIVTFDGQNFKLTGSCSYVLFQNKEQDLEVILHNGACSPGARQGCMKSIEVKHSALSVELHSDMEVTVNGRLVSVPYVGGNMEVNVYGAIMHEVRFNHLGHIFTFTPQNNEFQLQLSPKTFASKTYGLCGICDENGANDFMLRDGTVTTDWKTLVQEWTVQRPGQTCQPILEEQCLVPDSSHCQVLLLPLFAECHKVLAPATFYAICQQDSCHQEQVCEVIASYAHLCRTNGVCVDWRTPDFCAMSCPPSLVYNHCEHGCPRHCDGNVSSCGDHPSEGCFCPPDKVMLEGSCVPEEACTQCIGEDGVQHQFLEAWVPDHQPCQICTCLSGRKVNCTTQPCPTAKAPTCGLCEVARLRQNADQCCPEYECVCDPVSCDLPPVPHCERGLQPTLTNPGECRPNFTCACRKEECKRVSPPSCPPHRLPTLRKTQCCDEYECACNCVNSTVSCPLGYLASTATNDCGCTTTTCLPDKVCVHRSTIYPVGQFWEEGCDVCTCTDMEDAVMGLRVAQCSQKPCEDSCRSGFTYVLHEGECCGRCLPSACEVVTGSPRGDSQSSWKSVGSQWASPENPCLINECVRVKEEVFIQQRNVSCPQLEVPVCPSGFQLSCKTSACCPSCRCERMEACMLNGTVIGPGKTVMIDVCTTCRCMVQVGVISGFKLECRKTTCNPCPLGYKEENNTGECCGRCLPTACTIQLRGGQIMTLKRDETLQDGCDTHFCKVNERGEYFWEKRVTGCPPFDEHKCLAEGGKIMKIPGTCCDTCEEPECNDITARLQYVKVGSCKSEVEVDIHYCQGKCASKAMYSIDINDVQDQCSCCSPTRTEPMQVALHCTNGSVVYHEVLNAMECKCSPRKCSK

B1: Nanobody ALX0081sv1 (vWF0002) (VHH)
chain: DVQLVESGGGLVQPGGSLRLSCAASGRTFSYNPMGWFRQAPGKGRELVAAISRTGGSTYYPESVEGRFTISRDNAKRTVYLQMNSLRAEDTAVYYCAAAGVRAEQGRVRTLPSEYTFWGQGTQVTVSSAAAEVQLVESGGGLVQPGGSLRLSCAASGRTFSYNPMGWFRQAPGKGRELVAAISRTGGSTYYPESVEGRFTISRDNAKRTVYLQMNSLRAEDTAVYYCAAAGVRAEQGRVRTLPSEYTFWGQGTQVTVSS
VWF in pig plasma (pig)
  binding: binds
[1]
  binding: binds
